Source: the supplement of paper PMC10849652
This is one part of the list.

Chains of the proteins cited; added tags and fusions are not shown. Lines headed by an entry give the natural chain unless they say otherwise; changes in a name come on top.
UniProt Q9H857: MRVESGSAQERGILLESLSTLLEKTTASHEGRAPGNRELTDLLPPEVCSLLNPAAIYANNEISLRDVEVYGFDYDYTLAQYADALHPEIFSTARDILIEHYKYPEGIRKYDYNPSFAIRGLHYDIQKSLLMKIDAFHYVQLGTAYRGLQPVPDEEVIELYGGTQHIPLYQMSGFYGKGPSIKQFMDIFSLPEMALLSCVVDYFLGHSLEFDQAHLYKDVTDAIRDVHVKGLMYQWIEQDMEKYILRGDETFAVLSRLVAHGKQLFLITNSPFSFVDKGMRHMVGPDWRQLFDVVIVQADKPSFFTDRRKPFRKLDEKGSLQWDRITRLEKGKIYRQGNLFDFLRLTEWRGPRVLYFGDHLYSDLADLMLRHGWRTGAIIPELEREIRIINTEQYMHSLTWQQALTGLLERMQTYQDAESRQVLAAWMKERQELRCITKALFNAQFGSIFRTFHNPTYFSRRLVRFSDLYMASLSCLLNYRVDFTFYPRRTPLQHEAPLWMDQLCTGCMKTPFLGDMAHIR
UniProt O43847: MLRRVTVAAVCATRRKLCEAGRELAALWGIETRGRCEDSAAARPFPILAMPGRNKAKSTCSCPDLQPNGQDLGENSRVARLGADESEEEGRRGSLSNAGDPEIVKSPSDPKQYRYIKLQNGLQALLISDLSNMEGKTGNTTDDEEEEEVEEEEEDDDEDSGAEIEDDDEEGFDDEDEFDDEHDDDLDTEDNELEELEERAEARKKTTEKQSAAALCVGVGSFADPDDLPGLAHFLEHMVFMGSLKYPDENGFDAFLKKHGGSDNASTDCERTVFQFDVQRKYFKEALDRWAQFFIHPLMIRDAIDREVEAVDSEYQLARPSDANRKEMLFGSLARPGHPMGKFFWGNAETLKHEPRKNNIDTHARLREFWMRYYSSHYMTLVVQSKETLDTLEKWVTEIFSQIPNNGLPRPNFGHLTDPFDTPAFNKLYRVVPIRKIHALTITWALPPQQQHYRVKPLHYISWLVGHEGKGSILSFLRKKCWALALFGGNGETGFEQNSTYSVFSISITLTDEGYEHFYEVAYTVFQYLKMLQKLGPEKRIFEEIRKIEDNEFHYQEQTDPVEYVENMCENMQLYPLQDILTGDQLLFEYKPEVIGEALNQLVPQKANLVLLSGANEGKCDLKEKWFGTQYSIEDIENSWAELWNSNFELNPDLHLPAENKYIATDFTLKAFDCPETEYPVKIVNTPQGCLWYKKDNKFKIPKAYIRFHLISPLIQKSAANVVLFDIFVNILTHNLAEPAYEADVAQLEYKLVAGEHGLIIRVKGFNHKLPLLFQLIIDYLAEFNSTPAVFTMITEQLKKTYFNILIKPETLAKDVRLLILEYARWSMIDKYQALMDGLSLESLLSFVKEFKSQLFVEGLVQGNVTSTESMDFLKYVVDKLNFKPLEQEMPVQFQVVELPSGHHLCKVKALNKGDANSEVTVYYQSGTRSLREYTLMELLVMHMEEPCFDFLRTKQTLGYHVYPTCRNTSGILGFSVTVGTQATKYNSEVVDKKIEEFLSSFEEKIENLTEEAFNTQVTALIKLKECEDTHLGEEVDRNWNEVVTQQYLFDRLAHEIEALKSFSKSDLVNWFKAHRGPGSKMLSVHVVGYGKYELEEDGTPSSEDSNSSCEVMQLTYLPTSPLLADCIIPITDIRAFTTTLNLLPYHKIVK
UniProt Q9NZJ9: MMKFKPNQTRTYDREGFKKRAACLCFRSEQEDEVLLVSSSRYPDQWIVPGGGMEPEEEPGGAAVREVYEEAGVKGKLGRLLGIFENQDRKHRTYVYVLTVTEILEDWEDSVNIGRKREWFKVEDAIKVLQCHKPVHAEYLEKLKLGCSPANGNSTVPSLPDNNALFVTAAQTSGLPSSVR
UniProt O75607: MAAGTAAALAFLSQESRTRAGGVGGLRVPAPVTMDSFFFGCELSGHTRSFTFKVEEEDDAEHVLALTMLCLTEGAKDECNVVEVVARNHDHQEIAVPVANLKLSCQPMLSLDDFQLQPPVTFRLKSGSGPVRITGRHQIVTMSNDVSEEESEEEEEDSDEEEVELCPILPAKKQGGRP
UniProt Q8TAT6: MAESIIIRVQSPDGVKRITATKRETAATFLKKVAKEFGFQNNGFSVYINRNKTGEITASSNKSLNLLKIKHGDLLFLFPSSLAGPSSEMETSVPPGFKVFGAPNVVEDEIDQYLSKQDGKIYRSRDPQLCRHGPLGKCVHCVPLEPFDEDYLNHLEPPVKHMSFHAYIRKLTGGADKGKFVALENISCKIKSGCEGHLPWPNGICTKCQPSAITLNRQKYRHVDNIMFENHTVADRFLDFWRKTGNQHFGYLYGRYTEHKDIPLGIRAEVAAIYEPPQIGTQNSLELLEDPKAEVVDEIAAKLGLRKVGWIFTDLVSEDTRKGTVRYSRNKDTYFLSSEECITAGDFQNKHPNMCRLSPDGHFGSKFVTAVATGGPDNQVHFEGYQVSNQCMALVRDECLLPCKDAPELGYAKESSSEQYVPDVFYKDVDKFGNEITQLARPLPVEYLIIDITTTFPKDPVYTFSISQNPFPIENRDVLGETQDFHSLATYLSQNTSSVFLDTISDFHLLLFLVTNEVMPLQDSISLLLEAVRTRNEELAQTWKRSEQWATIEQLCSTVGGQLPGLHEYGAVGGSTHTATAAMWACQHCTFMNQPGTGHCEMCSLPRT
UniProt P80303: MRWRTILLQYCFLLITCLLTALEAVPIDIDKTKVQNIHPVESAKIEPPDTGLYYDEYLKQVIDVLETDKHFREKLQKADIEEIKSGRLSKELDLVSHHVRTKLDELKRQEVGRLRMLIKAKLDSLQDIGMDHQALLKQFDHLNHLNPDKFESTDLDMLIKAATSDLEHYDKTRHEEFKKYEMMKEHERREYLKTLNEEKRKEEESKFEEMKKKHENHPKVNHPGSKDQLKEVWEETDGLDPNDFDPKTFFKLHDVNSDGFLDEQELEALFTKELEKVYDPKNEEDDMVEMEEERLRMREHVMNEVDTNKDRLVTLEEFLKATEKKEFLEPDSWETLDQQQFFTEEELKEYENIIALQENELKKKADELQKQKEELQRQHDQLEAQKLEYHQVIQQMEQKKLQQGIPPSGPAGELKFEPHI
UniProt Q9Y314: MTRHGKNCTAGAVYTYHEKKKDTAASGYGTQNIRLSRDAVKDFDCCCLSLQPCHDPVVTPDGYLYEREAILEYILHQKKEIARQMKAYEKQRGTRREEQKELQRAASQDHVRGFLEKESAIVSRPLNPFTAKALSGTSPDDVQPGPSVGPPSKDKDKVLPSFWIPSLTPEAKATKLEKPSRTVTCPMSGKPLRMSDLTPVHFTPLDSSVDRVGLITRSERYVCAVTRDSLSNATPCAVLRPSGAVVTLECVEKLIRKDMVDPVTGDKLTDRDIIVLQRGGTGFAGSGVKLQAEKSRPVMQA
UniProt Q96P11: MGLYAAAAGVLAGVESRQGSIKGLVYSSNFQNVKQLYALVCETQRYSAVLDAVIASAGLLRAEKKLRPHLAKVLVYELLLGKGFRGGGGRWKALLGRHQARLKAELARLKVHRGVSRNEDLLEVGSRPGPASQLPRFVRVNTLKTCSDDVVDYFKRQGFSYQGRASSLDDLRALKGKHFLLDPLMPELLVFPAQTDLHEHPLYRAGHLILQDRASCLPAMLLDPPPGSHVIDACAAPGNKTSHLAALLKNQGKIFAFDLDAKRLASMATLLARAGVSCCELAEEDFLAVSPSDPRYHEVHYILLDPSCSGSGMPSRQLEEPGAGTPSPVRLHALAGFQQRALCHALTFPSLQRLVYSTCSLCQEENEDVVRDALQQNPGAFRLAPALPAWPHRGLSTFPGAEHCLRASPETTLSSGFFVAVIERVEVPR
UniProt Q14978: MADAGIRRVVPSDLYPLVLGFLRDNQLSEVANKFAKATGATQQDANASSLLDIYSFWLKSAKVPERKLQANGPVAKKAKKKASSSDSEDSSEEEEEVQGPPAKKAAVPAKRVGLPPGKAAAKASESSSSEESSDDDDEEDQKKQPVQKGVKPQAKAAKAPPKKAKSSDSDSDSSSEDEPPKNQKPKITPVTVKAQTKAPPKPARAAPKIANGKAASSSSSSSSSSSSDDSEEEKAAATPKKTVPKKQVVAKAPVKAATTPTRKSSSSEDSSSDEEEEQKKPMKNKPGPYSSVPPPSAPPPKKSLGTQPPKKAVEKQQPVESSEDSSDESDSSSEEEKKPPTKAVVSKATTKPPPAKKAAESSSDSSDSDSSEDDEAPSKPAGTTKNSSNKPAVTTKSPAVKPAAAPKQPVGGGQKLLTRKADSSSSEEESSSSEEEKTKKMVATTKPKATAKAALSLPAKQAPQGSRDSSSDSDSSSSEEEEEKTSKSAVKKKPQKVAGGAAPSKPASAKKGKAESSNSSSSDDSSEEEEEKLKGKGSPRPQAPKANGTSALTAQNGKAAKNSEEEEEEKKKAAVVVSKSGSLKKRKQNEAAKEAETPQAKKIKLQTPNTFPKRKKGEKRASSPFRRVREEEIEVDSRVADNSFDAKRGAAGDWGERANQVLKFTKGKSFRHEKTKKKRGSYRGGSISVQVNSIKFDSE

How the values were obtained:
Assay in all cases: log2 fold change, soluble protein after heating vs DMSO (PISA); higher = thermal stabilisation; K562 lysate, 10 uM; active = over 0.2 and 3.5 SD of the protein, either way, in both replicates (recomputed)
[1] = compound: C1=CC=C(C=C1)[C@H](COC2=CC3=C(C=C2)NC(=O)N3)NC(=O)C4=CC=CN(C4=O)CC5=CC(=C(C=C5)F)F
In short: (§1)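 Following dounce homogenisation of K562 pellets in PBS pH 7.4 with 1 mM MgCl2, crude extract at 1 mg/mL protein was incubated for 30 min with 10 μM compound. Aliquots were then heated for 3 min over 48°C-58°C and pooled, NP-40 was added to 0.5% at 4°C, and soluble protein was recovered as the supernatant at 21,000xg for 90 min. Channel-sum-equalised TMTpro 16plex LC-MS/MS quantified this protein. Each value, from duplicates, is a log-two fold change in thermal stability relative to solvent controls.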

[2] = compound: CC1=C(SC2=C1C(=N[C@H](C3=NN=C(N32)C)CC(=O)N)C4=CC=C(C=C4)Cl)C
In short: as §1

[3] = compound: CC1=C2C(=CC=C1)N=C(N(C2=O)C3=CC=CC=C3C)CN4C=NC5=C(N=CN=C54)N
In short: as §1

[4] = compound: Cc1sc2c(c1C)C(c1ccc(Cl)cc1)=N[C@@H](CC(=O)OC(C)(C)C)c1nnc(C)n1-2
In short: as §1

[5] = compound: c1ccc([C@@H]2C[C@H]2NC2CCNCC2)cc1
In short: as §1

Measured: log2 fold change

NT5DC2 isoform 2 (UniProt Q9H857)
inactive: [1] 0.021 | [2] -0.026 | [3] 0.009 | [4] 0.051 | [5] -0.022

NRDC isoform 2 (UniProt O43847)
inactive: [1] 0.002 | [2] 0.005 | [3] 0.001 | [4] 0.001 | [5] 0.035

NUDT4 isoform 2 (UniProt Q9NZJ9)
inactive: [1] 0.009 | [2] -0.011 | [3] 0.01 | [4] 0.067 | [5] -0.026

NPM3 (UniProt O75607)
inactive: [1] 0.172 | [2] -0.045 | [3] -0.009 | [4] -0.03 | [5] -0.157

NPLOC4 isoform 2 (UniProt Q8TAT6)
inactive: [1] 0.035 | [2] 0.017 | [3] 0.025 | [4] -0.012 | [5] -0.064

NUCB2 (UniProt P80303)
inactive: [1] 0.041 | [2] -0.005 | [3] -0.011 | [4] -0.021 | [5] 0.079

NOSIP (UniProt Q9Y314)
inactive: [1] 0.018 | [2] -0.005 | [3] -0.018 | [4] 0.019 | [5] 0.012

NSUN5 isoform 2 (UniProt Q96P11)
inactive: [1] -0.026 | [2] 0.02 | [3] -0.049 | [4] 0.015 | [5] 0.033

Two neighbouring records from above, for reference:
NPLOC4 isoform 2 (UniProt Q8TAT6)
inactive: [1] 0.035 | [2] 0.017 | [3] 0.025 | [4] -0.012 | [5] -0.064

NUCB2 (UniProt P80303)
inactive: [1] 0.041 | [2] -0.005 | [3] -0.011 | [4] -0.021 | [5] 0.079

The listing continues:

NOLC1 isoform 2 (UniProt Q14978)
inactive: [1] -0.01 | [2] 0 | [3] -0.014 | [4] 0.016 | [5] -0.033
